The target of this series is GST-OsDREB2A (Oryza sativa) (UniProt E7CYC3). Description: EMSA. Conditions: not given (EMSA as described previously, ref 7); recombinant protein; residues 1-281; protein details: N-terminal GST (pGEX-4T-2). (In general: A gel shift assay detects complexes by their altered migration in electrophoresis.)

Sequences of proteins named here, by UniProt entry; tags and fusion partners are left off.
UniProt E7CYC3, entry or part of it: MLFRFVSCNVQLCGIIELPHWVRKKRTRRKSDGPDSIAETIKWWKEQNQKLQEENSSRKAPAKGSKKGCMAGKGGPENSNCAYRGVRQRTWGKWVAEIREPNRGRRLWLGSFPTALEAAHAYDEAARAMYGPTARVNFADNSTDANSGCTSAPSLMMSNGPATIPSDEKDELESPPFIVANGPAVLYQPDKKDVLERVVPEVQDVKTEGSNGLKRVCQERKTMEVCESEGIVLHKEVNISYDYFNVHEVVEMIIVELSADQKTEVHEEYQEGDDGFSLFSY

The exact form of at least one protein or probe is not confirmed. A negative result means that nothing was seen under these conditions.

Regarding “ATTTCATGGAAGACCTGCTTTCATGGAAGACCTGCTT (double strand) [mGCC (mutated DRE)]”, the binding result is on record as “no binding”. “ATTTCATGGCCGACCTGCTTTCATGGCCGACCTGCTT (double strand) [DRE (WT)]”: the binding result is “binds”.

Source of the values: publication PMC3869746.
